Results taken from paper PMC7712654.
No constants are given. Whether binding was seen depends on the method and setting. In cells and extracts the contact can be indirect. For part of these data: A result given as binding can be weak or reduced; the word gives no strength. For part of these data: Sequences can lack the tags named with a protein.

B1: CTI1-nLUC (protein, UniProt Q9C7S3 1-168)
chain: MASLSSTSLSLPKNSHQLHPSSGFSLNPNARCVSVSFGLNHSNKLHISAPRTKRILTIQSAYRDDDGSGSTGLFVGGFILGGLIVGALGCVYAPQISKAIAGADRKDLMRKLPKFIYDEEKALEKTRKVLAEKIAQLNSAIDDVSSQLKSEDTPNGAALSTDEIEATA
B2: BCCP2 (BiFC) (protein, UniProt Q9LLC1 88-255)
chain: EFMAKVSGLLKLVDSKDIVELELKQLDCEIVIRKKEALQQAVPPAPVYHSMPPVMADFSMPPAQPVALPPSPTPTSTPATAKPTSAPSSSHPPLKSPMAGTFYRSPGPGEPPFVKVGDKVQKGQIVCIIEAMKLMNEIEAEKSGTIMELLAEDGKPVSVDTPLFVIAP
B3: PTST2 (BiFC) (protein, UniProt Q9LFY0 72-532)
chain: CNGVSRMCNKRNLGWDSEGSKDLETEILEFMKNSEKPGMFPSKKDLIRSGRFDLVERIVNQGGWLSMGWDLDEQEEKVRVNENVTPQDLHIEKQLPNCNSPEMDKTLNHGDLDLSSNLSSSTEQVESRNDSGIEGILTRLEKERNLSLGISVRENGKSNGAMHDISPNGSVPWSSRIVTASEIQEVDGSRGSGEYAQSRYQGAKSVSGKPGLSDSPTSETWRTWSMRRAGFTDEDFEAAEISSSGLTGVKKDDTKKDSGDSMNGKDRIASSSEDVNKTHIKHRLQQLQSELSSVLHSLRSPPDKVVTSKDSETTAGNLENLSDDWEYKENEIIHAQNKLRSTRAKLAVLEGKMAMAIIDAQRIVREKQRRIDHASRALRLLRTASIVWPNSASEVLLTGSFDGWSTQRKMKKAENGVFSLSLKLYPGKYEIKFIVDGQWKVDPLRPIVTSGGYENNLLIIS

Experiments:
[1] = molecular target: α-CT-cLUC (Arabidopsis thaliana); test: split reporter; split-luciferase in agroinfiltrated Nicotiana benthamiana leaves; 4 d continuous light, or 2 d light then 2 d dark, then 24 h recovery in the light; CCD imaging with D-luciferin
[2] = molecular target: CTI1-nYFP (Arabidopsis thaliana) (UniProt Q9C7S3); test: split reporter; BiFC with split YFP in Arabidopsis protoplasts, confocal microscopy

| Binder | binding [1] | binding [2] |
| --- | --- | --- |
| B1 | binds |  |
| B2 |  | no binding |
| B3 |  | no binding |
